Laboratory results taken from article PMC8645233.
No constants are given. Whether binding was seen depends on the method and setting. Some entries that bind do so weakly or less than the wild type.

Target: T1, GTBP-1 (C. elegans) (UniProt Q21351)
T1 sequence: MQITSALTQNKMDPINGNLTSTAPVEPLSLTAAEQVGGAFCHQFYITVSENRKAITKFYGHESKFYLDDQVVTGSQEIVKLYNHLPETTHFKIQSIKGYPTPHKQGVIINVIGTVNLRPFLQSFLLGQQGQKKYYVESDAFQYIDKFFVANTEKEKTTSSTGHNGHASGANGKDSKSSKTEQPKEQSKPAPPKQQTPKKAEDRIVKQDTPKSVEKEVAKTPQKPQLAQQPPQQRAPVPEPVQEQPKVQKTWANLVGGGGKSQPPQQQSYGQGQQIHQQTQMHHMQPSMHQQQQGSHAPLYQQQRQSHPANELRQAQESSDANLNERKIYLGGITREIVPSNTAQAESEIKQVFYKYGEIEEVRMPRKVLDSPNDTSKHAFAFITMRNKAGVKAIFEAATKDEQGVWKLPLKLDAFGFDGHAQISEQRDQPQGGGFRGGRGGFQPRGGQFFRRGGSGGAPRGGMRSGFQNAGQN
Assay: two-hybrid; PJ69-4a yeast strain; single copy GAL4 activation and GAL4 DNA-binding domain vectors; growth for 3 days on SC -Leu -Trp -His plates with 3 mM 3AT (HIS-3 reporter) and colony colour (ADE-2 reporter)

B1: Prion-like (glutamine/asparagine-rich) domain bearing protein (PQN-59) (protein, UniProt O61708 1-712)
chain: MGIKGDKKATSDQARLARLTLEGNSGNEEDIQFMIKTIIETTGCTQAQAEIALLDTDNNLYGAIDHILDAGDKLDSWTEQKGAKKEKKKPEEGSYNNRGFVARGRGGGTGFVDRGGRGRSNGAPRESRDNNRDNRDNKEGAAPRSTRGGFEKPYVGRGGRGGARGGYSRAVAPSSALEPDAFTADLDENQTKVDTTVTEVQPPVEESVTATVPTSSAPAPISFAAVAAAAHRKEALRKHQAQNPQPAAPPRRSLSPQPPLPSVAPVKEEPAAAPVFFEPETSHQPEKEDGFFQNESSVLAEEQTPNVSTHHDENVQSTPEPNQAWTTQLKTDLGIGLSEAPGLGLSPIPSAAPVQIIPDPGVEFVGTTAPTNIHDYSFGFVEAAPSPQLPSTESSAASISNASENIFNSSRIMPKQVEPERTSIPNGDYNLKSTSPPLSYGQSNRGLSYDTSSASYQPTDRMAPNKFNNSGPLPTQQSAQQHQPQQQQQQAPQQPVQQQQQTPPAQSQPTGHPQQHPHMMFTQQLPYAPYMNNYMNMYNPMPGVRDEQYTAALMQYGMGVDLTSLLPTAPLSQAASAQQVQSGQQRETHGLMDFNKFGSQSSRDQQPQQASNVGPPPGFQATNYMQQPNLSSLFMQQYSPAPHQFTPFMNMMPNVGSSAGGRQLYGQDDERKSYDKMSGSKPAAQQNQHSQYQHNGGNLGKYGMNKPYNWSN
- binding: binds
